Legend:
[1] = system: HAND mice (IC injection of HIV-infected human MDM); assay: Object recognition testing (ORT) in SCID mouse HAND model; type: in vivo, SCID mice; conditions: days 12 and 13, after 6 and 7 days of treatment
Procedure: Four-week-old B6.CB17-Prkdc^scid/SzJ (SCID) male mice were injected IC with 30 μL of HIV-infected MDMs suspended in 0.9% saline, directly into the frontal lobe of the right hemisphere. The injection was done free-handed (without a stereotactic device). The injection is performed with a syringe that allows a very slow rate of infusion. We have verified the injection site with a histological staining in our previously published works, which is in the basal ganglia as described in Koneru et al.. Injections were performed on day 0 (D0). Treatments (baricitinib or saline) were given subcutaneously (SC). There were 4 groups of mice: (1) control (uninfected MDM) group, (2) HIV-infected MDM (HAND) plus saline, (3) HIV-infected MDM (HAND) + 10 mg/kg baricitinib qd, and (4) HIV-infected MDM (HAND) + 50 mg/kg baricitinib qd (n = 9 per group).
On day 4 post-IC injection, the mice experienced 10 min of acclimatization to a Plexiglas chamber (60 cm × 60 cm). On day 5 post-injection, a “training phase” followed by a “preference test” after a delay of 5 min was performed on each mouse. […] Exploration times were recorded and used to calculate a discrimination index (DI, (time spent with object A minus time spent with object B)/(total time exploring both objects)) for the training and for the test sessions, respectively. […]

HIV-1baL = assay: Antiviral activity in primary human macrophages (p24 ELISA); type: cell-based; conditions: Human immunodeficiency virus 1, Macrophage, read-out: EC50 inhibition of HIV replication in macrophages
Description: Mϕ and monocytes were isolated as previously described. […] Cells were maintained for 6 days before viral quantification (p24-ELISA). For in vitro activation marker studies, CD14^+ monocytes or fully differentiated (CD14^−/CD11b^+) Mϕ were used. Monocytes were used as a model to mimic HIV-induced activation that transpires in the periphery, wherein presence or internalization of HIV-1 in monocytes confers activation (CD14^+/CD16^+) and subsequent trafficking of “Trojan horse” monocytes across and within the BBB [11, 12]. The method used to differentiate Mϕ (CD14^−/CD11b^+) has been validated by our group to ensure that these cells are no longer expressing monocyte marker CD14 and are mature Mϕ (CD11b expression). Mϕ or monocytes were treated with various concentrations of drug prior to infection (HIV-1baL) and maintained for 3 days before quantification of HLA-DR, CD163 (Mϕ), or CD14/CD16 (monocytes; Miltenyi Biotec, San Diego, CA). Mϕ and monocytes were treated with various concentrations of drug for 6 days and stained with Near-IR live/dead dye and quantified by FACS. Antiviral potency was calculated as previously described.

[2] = system: HIV replication in primary PBM cells; assay: Antiviral activity in activated peripheral blood mononuclear (PBM) cells; type: cell-based, HIV-1; conditions: Human immunodeficiency virus 1, PBMC, read-out: EC50 inhibition of HIV replication in PBM cells
J-lat T cells = assay: TNF-α-induced reactivation of latent HIV-1 in J-lat T cells; type: cell-based; conditions: Homo sapiens, T-cell, read-out: EC50 inhibition of TNF-α induced reactivation
[3] = system: latent HIV-1 in primary human Mϕ; assay: PMA-induced reactivation of HIV-1 from latent primary human macrophages (p24 ELISA); type: cell-based; conditions: Macrophage, 50 ng/mL PMA, 24 h, read-out: EC50 inhibition of PMA induced reactivation
Procedure: Primary human Mϕ were prepared as described above and infected with an MOI of 0.5 with HIV-1BaL for 4 h prior to removal of virus and culture in virus-free medium. Supernatants were collected every 5 days, and extracellular p24 production was monitored (p24 ELISA, ABL, Inc.). Fresh culture medium was added to cultures every 5 days as supernatants were collected for p24 analysis. When extracellular p24 levels were below limit of detection (about 30 days post-infection), cells were incubated with various concentrations of baricitinib (0.001, 0.01, 0.1, 1.0, 10 μM), 3TC (negative control; same concentrations), or drug-free medium, for 2 h prior to addition of 50 ng/mL phorbol myristate acetate (PMA) to cultures to induce reactivation of latent HIV-1. After 24 h post-reactivation, cellular supernatants were collected, and extracellular reactivated p24 was quantified (p24 ELISA). Percent inhibition of reactivation was calculated versus no drug controls, and EC50/90 were calculated as previously described.

[4] = system: non-dividing p24+ primary CD4+ T cells; assay: Frequency of non-dividing p24+ latent primary CD4+ T cells in vitro; type: cell-based; conditions: Homo sapiens, read-out: EC50 reduction of non dividing latent CD4 T cells
[5] = system: HLA-DR and CD163 in primary human Mϕ; assay: HIV-induced upregulation of activation markers HLA-DR and CD163 in primary human macrophages; type: cell-based; conditions: Macrophage, read-out: EC50 inhibition of HIV-induced HLA-DR and CD163
Description: Mϕ and monocytes were isolated as previously described. […] Cells were maintained for 6 days before viral quantification (p24-ELISA). For in vitro activation marker studies, CD14^+ monocytes or fully differentiated (CD14^−/CD11b^+) Mϕ were used. […] The method used to differentiate Mϕ (CD14^−/CD11b^+) has been validated by our group to ensure that these cells are no longer expressing monocyte marker CD14 and are mature Mϕ (CD11b expression). […] Miltenyi Biotec, San Diego, CA). Mϕ and monocytes were treated with various concentrations of drug for 6 days and stained with Near-IR live/dead dye and quantified by FACS. Antiviral potency was calculated as previously described. Primary human monocytes or Mϕ were isolated as described above and cultured in the following conditions: […] Cells were harvested and stained for CD14^+ (FITC)/CD16^+ (APC) to quantify HIV-induced activation or impact of drugs on block of these markers.

CCS(=O)(=O)N1CC(CC#N)(n2cc(-c3ncnc4[nH]ccc34)cn2)C1 [Baricitinib]
ORT abnormalities (discrimination index) ([1]; 10 mg/kg qd SC): reversed | ORT abnormalities (discrimination index) ([1]; 50 mg/kg qd SC): reversed | EC50 (HIV-1baL): 200 ± 100 nM | EC50 [2]: 9 ± 3 nM | EC50 (J-lat T cells): 100 ± 80 nM | EC50 [3]: 90 ± 40 nM | EC50 [4]: 50 ± 20 nM | EC50 [5]: 100 nM

Source: PMC6764124, “Baricitinib reverses HIV-associated neurocognitive disorders in a SCID mouse model and reservoir seeding in vitro” (Journal of Neuroinflammation, 2019)
